Binding data for 1 substance are collected here from paper PMC5432325.

Assay [1] addresses FLAG tagged human RET51 (long RET isoform) (human) (UniProt P07949). The assay can be described thus: co-IP; as a5, HEK-293 cells without EGF stimulation; IP with anti-FLAG antibody, blot with anti-EGFR antibody.
The target is the same in assay [2]. Briefly: co-IP; lysates of HEK-293 cells transfected with p-RET51 or p-RET9, 72 hours after transfection, with EGF stimulation; IP with mouse monoclonal anti-FLAG antibody overnight at 4°C, blot with anti-EGFR antibody.

These are yes or no findings as the source states them, for the method shown. Binding seen in cells or lysates may run through a third protein. Some binding calls cover weakened binding; strength is not graded here.

“epidermal growth factor receptor (EGFR) (from UniProt P00533 25-1210)”: the binding entry in assay [1] was “no binding (condition: cells without EGF stimulation)”; in assay [2], “binds”.
